Results deposited as PubChem BioAssay AID1224830 (NIAID, 2016).

Aim: 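Host factors that control LPS-induced TNF expression in human macrophages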 (primary screen)
Cell system: human THP-1 monocytic leukaemia cells, TNF dual-luciferase reporter clone, PMA-differentiated to macrophage-like cells
Reagent: siRNA pool against human genes, 50 nM
Duration: LPS for 4 h, given about 3 days after siRNA transfection
Treatment: bacterial LPS (TLR4 ligand), 10 ng/ml
Detection: 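Ratio of firefly to renilla light, scaled to the plate median and expressed as a robust z-score per replicate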
Scale: TNF reporter robust z-score: higher = stronger TNF reporter response to LPS
Rule for the call: 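a well is active when its z-score exceeds 2.8 or falls below -1.5; control wells carry no call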
Here is one part, drawn at random, of about 18,000 deposited reagents. About 2,900 of them (16%) count as active. 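Calls are made per well; low scores hint the gene aids the LPS response, high scores that it dampens it.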 Repeated entries: four replicate wells of each siRNA pool.

gene symbol	PubChem SID	TNF reporter robust z-score	call
BBS1	SID315447515	1.85	inactive
BBS1	SID315447515	0.04	inactive
BBS1	SID315447515	-0.34	inactive
CHRNA9	SID315457692	0.1	inactive
CHRNA9	SID315457692	-0.93	inactive
CHRNA9	SID315457692	0.15	inactive
CHRNA9	SID315457692	0.22	inactive
COL19A1	SID315448036	0.37	inactive
COL19A1	SID315448036	1.67	inactive
COL19A1	SID315448036	3.5	active
COL19A1	SID315448036	2.94	active
GPR63	SID315459868	-1.01	inactive
GPR63	SID315459868	-0.26	inactive
GPR63	SID315459868	-0.87	inactive
GPR63	SID315459868	0.29	inactive
CTDSP2	SID315453823	0.98	inactive
CTDSP2	SID315453823	2.41	inactive
CTDSP2	SID315453823	1.43	inactive
CTDSP2	SID315453823	1.64	inactive
INHA	SID315449506	0.86	inactive
INHA	SID315449506	-0.49	inactive
INHA	SID315449506	-1.5	inactive
INHA	SID315449506	-1.19	inactive
ZNF114	SID315462772	0.3	inactive
ZNF114	SID315462772	1.2	inactive
ZNF114	SID315462772	-0.43	inactive
ZNF114	SID315462772	0.68	inactive
AGPAT5	SID315457597	2.37	inactive
AGPAT5	SID315457597	0.46	inactive
AGPAT5	SID315457597	-0.73	inactive
AGPAT5	SID315457597	1.09	inactive
RDH16	SID315452683	-0.41	inactive
RDH16	SID315452683	0.28	inactive
RDH16	SID315452683	-0.63	inactive
RDH16	SID315452683	-0.15	inactive
DNALI1	SID315452309	-0.4	inactive
DNALI1	SID315452309	1.25	inactive
DNALI1	SID315452309	0.33	inactive
DNALI1	SID315452309	2.4	inactive
FCRLB	SID315461776	0.78	inactive
FCRLB	SID315461776	1.08	inactive
FCRLB	SID315461776	-0.01	inactive
FCRLB	SID315461776	1.55	inactive
TSNARE1	SID315463109	-0.97	inactive
TSNARE1	SID315463109	0.21	inactive
TSNARE1	SID315463109	-1	inactive
TSNARE1	SID315463109	-0.4	inactive

Called active, of those listed so far:
gene symbol	PubChem SID	TNF reporter robust z-score	call
COL19A1	SID315448036	3.5	active
COL19A1	SID315448036	2.94	active
